# Test results from PMC5996148.
# Several values for one entry are separate records, joined by “and”; a condition that tells them apart may be missing. Identical values can stand only once. This is one part of the list.
# Legend:
# Assay in all cases: protein microarray (ProtoArray v5.0), streptavidin-Alexa Fluor 647
# Conditions in all cases: 3'-biotin; 20 mM Tris (pH 7.5), 5 mM MgCl2, 100 mM KCl, 0.1% Tween-20, A/T-rich and random oligonucleotide blockers; temperature not stated; high values mean tight binding
# PDE4D (human) = test system: PDE4D (human)
# PDE4DIP (human) = test system: PDE4DIP (human)
# PDE7B (human) = test system: PDE7B (human)
# PDE8A (human) = test system: PDE8A (human)
# PDE9A (human) = test system: PDE9A (human)
# PDHA1 (human) = test system: PDHA1 (human)
# PDK4 (human) = test system: PDK4 (human)
# PDPK1 (human) = test system: PDPK1 (human)
# PDRG1 (human) = test system: PDRG1 (human)
# PDSS2 (human) = test system: PDSS2 (human)
# PDXDC1 (human) = test system: PDXDC1 (human)
# PDXK (human) = test system: PDXK (human)
# PDYN (human) = test system: PDYN (human)
# [1] = test system: PDZ and LIM domain protein 3 (human)
# [2] = test system: PDZ and LIM domain protein 4 (human)
# [3] = test system: PDZ domain-containing protein GIPC1 (human)
# PDZD11 (human) = test system: PDZD11 (human)
# PDZK1 (human) = test system: PDZK1 (human)
# [4] = test system: PDZK1-interacting protein 1 (human)
# PDZK1IP1 (human) = test system: PDZK1IP1 (human)
sequence,measurement,setting,value
GGGAGGCTGAGGCAGG [G4-1 biotinylated (PQS2)],binding signal,PDE4D (human),-0.279 z-score
same,binding signal,PDE4DIP (human),-0.321 z-score
same,binding signal,PDE7B (human),-0.26 z-score
same,binding signal,PDE8A (human),-0.312 z-score
same,binding signal,PDE9A (human),-0.298 z-score and -0.286 z-score
same,binding signal,PDHA1 (human),-0.275 z-score
same,binding signal,PDK4 (human),-0.345 z-score
same,binding signal,PDPK1 (human),-0.333 z-score
same,binding signal,PDRG1 (human),-0.316 z-score
same,binding signal,PDSS2 (human),-0.309 z-score
same,binding signal,PDXDC1 (human),-0.329 z-score
same,binding signal,PDXK (human),-0.296 z-score
same,binding signal,PDYN (human),-0.33 z-score
same,binding signal,[1],-0.346 z-score
same,binding signal,[2],-0.322 z-score
same,binding signal,[3],-0.315 z-score
same,binding signal,PDZD11 (human),-0.33 z-score
same,binding signal,PDZK1 (human),-0.318 z-score
same,binding signal,[4],-0.326 z-score
same,binding signal,PDZK1IP1 (human),-0.317 z-score
